Laboratory results taken from US20260226031A1, “NOVEL COMPOUNDS” (NRG THERAPEUTICS LTD., priority 2023, published 2026).
For at least one compound, name, drawing or mass did not settle the structure.

Assays:
mPTP [1] = experiment: mPTP activity (Ca2+ retention) assay in isolated rat liver mitochondria; assay type: biochemical; details: Fluo5N fluorescence at 10 min after CaCl2 (75 μM) bolus, DMSO 0%, 5 μM cyclosporin A 100% inhibition
Excerpt: Pharmacological inhibition or modulation of the mPTP can be measured in well characterised ‘Ca^2+ retention’ assays performed in isolated mitochondria. In vitro, isolated mitochondria rapidly sequester exogenous Ca^2+ until the intramitochondrial Ca^2+ concentration reaches the threshold for mPTP activation. Once the pore is activated, mitochondrial integrity is compromised and the stored Ca^2+ is released. The distribution of Ca^2+ between extra- and intra-mitochondrial compartments can be measured in real time with the use of membrane-impermeant Ca^2+ sensitive fluorescent dyes. […]
MPTP activity was measured in mitochondria freshly isolated from female Sprague Dawley (250 to 300 gram) rat livers using the following method. […]
A stock mitochondria/Fluo5N assay solution was prepared in 5.6 ml FLIPR assay buffer (at RT) supplemented with succinate disodium salt (10 mM), rotenone (1 μM), Fluo5N pentapotassium salt (2 μM) and 1 ml mitochondria suspension, then transferred (15 μl) into the assay plate containing test compounds and incubated for 10 min at RT. Assay plates were processed for fluorescence detection on either a FLIPR Tetra (Molecular Devices) or CLARIOstar (BMG) plate reader. For kinetic fluorescence detection on the FLIPR, dye fluorescence was measured every 3 sec for a total of 10 min. […]

mPTP [2] = experiment: mPTP activity (Ca2+ retention) assay in isolated rat brain mitochondria; assay type: biochemical; details: Fluo5N fluorescence at 10 min after Ca2+ (75 μM) bolus
Experimental: MPTP activity was measured in brain mitochondria freshly isolated from female Sprague Dawley (250 to 300 gram) rats. Anaesthetised rats were perfused in-situ with ~40 ml cold Dulbecco's Phosphate Buffered Saline (DPBS), then brains dissected and transferred into 30 ml Isolation Buffer (225 mM mannitol, 75 mM sucrose, 1 mM EGTA, adjusted to pH 7.4 with 1M NaOH). The brain was minced using tweezers and a scalpel into ~5 mm pieces then transferred into a 50 ml Potterton Dounce homogenization tube on ice containing 10 ml ice-cold isolation buffer (as above with addition of Complete Protease inhibitor; 1 tablet per 50 ml buffer). Homogenisation was carried out using a Teflon® pestle at 1800 rpm. The slurry was centrifuged at 2000 g for 10 min at 4° C., then the supernatant centrifuged at 12,000 g for 9 min. The pellet was resuspended with a dounce homogeniser in isolation buffer as above but with the addition of 0.02% digitonin, centrifuged at 12,000 g for 11 min and finally resuspended in 5 ml modified isolation buffer (as above but with EGTA reduced to 0.1 mM).
Test compounds were prepared in 384 well polypropylene assay plates as described above for the liver mitochondria assay. […] Assay plates were then transferred to a FLIPR Tetra plate reader (Molecular Devices). Dye fluorescence was then measured every 3 sec for a total of 10 min.

SMILES: C#Cc1ccc(C2CN(C(=O)c3cncc(=O)[nH]3)CC23CCC3)cc1 (single isomer, unassigned) [Example 19a, 6-[(4-Ethynylphenyl)-6-azaspiro[3.4]octane-6-carbonyl]-1H-pyrazin-2-one]
- mPTP Rat liver pIC50* (mPTP [1]): 4.77
- mPTP Rat brain pIC50 (mPTP [2]): 5.06

SMILES: C#Cc1ccc(C2CN(C(=O)c3cncc(=O)[nH]3)CC23CCC3)cc1 (single isomer, unassigned) [Example 19b, 6-[(4-Ethynylphenyl)-6-azaspiro[3.4]octane-6-carbonyl]-1H-pyrazin-2-one]
- mPTP Rat liver pIC50* (mPTP [1]): <4.52
- mPTP Rat brain pIC50 (mPTP [2]): <4.52
